Measurements published in publication PMC12221414.
These are yes or no findings as the source states them, for the method shown. In cells and extracts the contact can be indirect. Some results given as binding are weak or reduced against the parent protein; the word gives no strength.

Biological target: T1, Snapin (mouse (endogenous in HEI-OC1)) (UniProt Q9Z266)
T1 sequence: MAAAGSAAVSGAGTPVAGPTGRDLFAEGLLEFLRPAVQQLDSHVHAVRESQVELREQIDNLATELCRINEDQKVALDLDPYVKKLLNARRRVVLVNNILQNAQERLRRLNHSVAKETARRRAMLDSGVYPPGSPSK
Experiment: co-IP; HEI-OC1 cells (Cisd2 knockdown, as the methods say) lysed in RIPA buffer; 4 ug SNAPIN antibody 2-3 hr at 4°C, protein A/G 1 hr; washed in RIPA and PBS; Western blot with SNAPIN and CISD2 antibodies

B1: Cisd2 (protein, UniProt Q9CQB5 1-135)
chain: MVLDSVARIVKVQLPAYLKQLPVPDSITGFARLTVSDWLRLLPFLGVLALLGYLAVRPFFPKKKQQKDSLINLKIQKENPKVVNEINIEDLCLTKAAYCRCWRSKTFPACDGSHNKHNELTGDNVGPLILKKKEV
binding: binds
